Reference: publication PMC11833736 (ACS Pharmacology & Translational Science, 2025)
Counter-ions that a name gives are not always drawn.

Columns and labels:
[1] = test system: U-87MG glioblastoma cells; assay: Cytotoxicity, SRB end-point assay, dark or green light; conditions: Homo sapiens, light or radiation study, read-out: EC50,GL
SH-SY5Y cells = assay: as above; type: cell-based; conditions: for EC50: kept in the dark, SRB, normoxic (21% O2)

COc1cc2c(cc1OC)C(=O)C(CC1CCN(Cc3ccccc3)CC1)C2 (stereo not shown) [donepezil HCl, reference compound]
EC50 [1]: > 100 µM | EC50 (SH-SY5Y cells; Homo sapiens): 59 µM | impact on cell growth (in words) (SH-SY5Y cells; irradiated with green light): had no impact on cell growth | EC50 (SH-SY5Y cells): 59.1 µM
